Data as given in PubChem BioAssay AID1508597 (Cure First, 2020)
Purpose: 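Genes whose silencing sensitises or protects ovarian cancer cells against rucaparib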 (primary screen). System: human ovarian carcinoma lines grown from tumours: OCI-P5x (papillary serous) and OCI-C5x (clear cell). Reagent: siRNA pool against human genes, 1.25 pmol siRNA per well. Time to read-out: 72 h or 96 h, depending on the cell culture. Challenge: rucaparib 20 µM (about IC30) or vehicle, present until read-out. Measurement: 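Luminescent ATP-based viability assay read 72 or 96 h after transfection, depending on culture, given as normalised percent viability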. Reading the numbers: viability, normalised: higher = more viable cells remaining. Hit rule: 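Active when normalised viability falls below 80 percent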. Meaning of the calls: active = viability under 80%; inactive = viability 80% or more.
Here is an unselected part of about 2,100 reagents. 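Calls flag viability under 80% in either arm, not effects specific to rucaparib; the reference for percent is not stated.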 Not given: the 100% reference.

The first 5 records, ahead of the listing:
gene symbol	rucaparib or vehicle	cell line	technical replicate	viability, normalised (%)	Call
USP16 (GeneID 10600)	Rucaparib	OCI-C5x (clear cell)	1	55.9	active
USP16 (GeneID 10600)	Rucaparib	OCI-C5x (clear cell)	2	47.4	active
USP16 (GeneID 10600)	Rucaparib	OCI-C5x (clear cell)	3	42.7	active
USP16 (GeneID 10600)	Rucaparib	OCI-P5x (serous)	1	62	active
USP16 (GeneID 10600)	Rucaparib	OCI-P5x (serous)	2	43.1	active

Results, from the start:
gene symbol	rucaparib or vehicle	cell line	technical replicate	viability, normalised (%)	Call
USP16 (GeneID 10600)	Rucaparib	OCI-C5x (clear cell)	1	55.9	active
USP16 (GeneID 10600)	Rucaparib	OCI-C5x (clear cell)	2	47.4	active
USP16 (GeneID 10600)	Rucaparib	OCI-C5x (clear cell)	3	42.7	active
USP16 (GeneID 10600)	Rucaparib	OCI-P5x (serous)	1	62	active
USP16 (GeneID 10600)	Rucaparib	OCI-P5x (serous)	2	43.1	active
USP16 (GeneID 10600)	Rucaparib	OCI-P5x (serous)	3	55.1	active
USP16 (GeneID 10600)	Vehicle	OCI-C5x (clear cell)	1	56.2	active
USP16 (GeneID 10600)	Vehicle	OCI-C5x (clear cell)	2	68.3	active
USP16 (GeneID 10600)	Vehicle	OCI-C5x (clear cell)	3	53.8	active
USP16 (GeneID 10600)	Vehicle	OCI-P5x (serous)	1	48.9	active
USP16 (GeneID 10600)	Vehicle	OCI-P5x (serous)	2	53	active
USP16 (GeneID 10600)	Vehicle	OCI-P5x (serous)	3	46.6	active
UTY (GeneID 7404)	Rucaparib	OCI-C5x (clear cell)	1	77.9	active
UTY (GeneID 7404)	Rucaparib	OCI-C5x (clear cell)	2	89.7	inactive
UTY (GeneID 7404)	Rucaparib	OCI-C5x (clear cell)	3	56.8	active
UTY (GeneID 7404)	Rucaparib	OCI-P5x (serous)	1	50.6	active
UTY (GeneID 7404)	Rucaparib	OCI-P5x (serous)	2	52.7	active
UTY (GeneID 7404)	Rucaparib	OCI-P5x (serous)	3	50.2	active
UTY (GeneID 7404)	Vehicle	OCI-C5x (clear cell)	1	29.6	active
UTY (GeneID 7404)	Vehicle	OCI-C5x (clear cell)	2	40.5	active
UTY (GeneID 7404)	Vehicle	OCI-C5x (clear cell)	3	37.5	active
UTY (GeneID 7404)	Vehicle	OCI-P5x (serous)	1	92.7	inactive
UTY (GeneID 7404)	Vehicle	OCI-P5x (serous)	2	115	inactive
UTY (GeneID 7404)	Vehicle	OCI-P5x (serous)	3	107	inactive
PI4K2A (GeneID 55361)	Rucaparib	OCI-C5x (clear cell)	1	55.4	active
PI4K2A (GeneID 55361)	Rucaparib	OCI-C5x (clear cell)	2	39.3	active
PI4K2A (GeneID 55361)	Rucaparib	OCI-C5x (clear cell)	3	50.7	active
PI4K2A (GeneID 55361)	Rucaparib	OCI-P5x (serous)	1	81.7	inactive
PI4K2A (GeneID 55361)	Rucaparib	OCI-P5x (serous)	2	103	inactive
PI4K2A (GeneID 55361)	Rucaparib	OCI-P5x (serous)	3	65.5	active
PI4K2A (GeneID 55361)	Vehicle	OCI-C5x (clear cell)	1	63.2	active
PI4K2A (GeneID 55361)	Vehicle	OCI-C5x (clear cell)	2	51.5	active
PI4K2A (GeneID 55361)	Vehicle	OCI-C5x (clear cell)	3	49.9	active
PI4K2A (GeneID 55361)	Vehicle	OCI-P5x (serous)	1	71.1	active
PI4K2A (GeneID 55361)	Vehicle	OCI-P5x (serous)	2	65.8	active
PI4K2A (GeneID 55361)	Vehicle	OCI-P5x (serous)	3	67.2	active
PIAS2 (GeneID 9063)	Rucaparib	OCI-C5x (clear cell)	1	64.4	active
PIAS2 (GeneID 9063)	Rucaparib	OCI-C5x (clear cell)	2	52.6	active
PIAS2 (GeneID 9063)	Rucaparib	OCI-C5x (clear cell)	3	48.8	active
PIAS2 (GeneID 9063)	Rucaparib	OCI-P5x (serous)	1	46.3	active
PIAS2 (GeneID 9063)	Rucaparib	OCI-P5x (serous)	2	52.4	active
PIAS2 (GeneID 9063)	Rucaparib	OCI-P5x (serous)	3	50.2	active
PIAS2 (GeneID 9063)	Vehicle	OCI-C5x (clear cell)	1	54.9	active
PIAS2 (GeneID 9063)	Vehicle	OCI-C5x (clear cell)	2	41.6	active
PIAS2 (GeneID 9063)	Vehicle	OCI-C5x (clear cell)	3	73.2	active
PIAS2 (GeneID 9063)	Vehicle	OCI-P5x (serous)	1	59.2	active
PIAS2 (GeneID 9063)	Vehicle	OCI-P5x (serous)	2	65.6	active
PIAS2 (GeneID 9063)	Vehicle	OCI-P5x (serous)	3	67.6	active
MUTYH (GeneID 4595)	Rucaparib	OCI-C5x (clear cell)	1	40.4	active
MUTYH (GeneID 4595)	Rucaparib	OCI-C5x (clear cell)	2	46.3	active
MUTYH (GeneID 4595)	Rucaparib	OCI-C5x (clear cell)	3	36.4	active
MUTYH (GeneID 4595)	Rucaparib	OCI-P5x (serous)	1	62.3	active
MUTYH (GeneID 4595)	Rucaparib	OCI-P5x (serous)	2	86.7	inactive
MUTYH (GeneID 4595)	Rucaparib	OCI-P5x (serous)	3	81.2	inactive
MUTYH (GeneID 4595)	Vehicle	OCI-C5x (clear cell)	1	49.9	active
MUTYH (GeneID 4595)	Vehicle	OCI-C5x (clear cell)	2	32.4	active
MUTYH (GeneID 4595)	Vehicle	OCI-C5x (clear cell)	3	33.6	active
MUTYH (GeneID 4595)	Vehicle	OCI-P5x (serous)	1	50.1	active
MUTYH (GeneID 4595)	Vehicle	OCI-P5x (serous)	2	69.8	active
MUTYH (GeneID 4595)	Vehicle	OCI-P5x (serous)	3	65	active
